No constants are given. Whether binding was seen depends on the method and setting. Some entries that bind do so weakly or less than the wild type.
Experiments:
癌胚抗原 (CEA) [1] = target: 癌胚抗原 (CEA) (UniProt P06731); assay: double-antibody sandwich detection of CEA; detection antibody
癌胚抗原 (CEA) [2] = target: 癌胚抗原 (CEA) (UniProt P06731); assay: double-antibody sandwich, magnetic bead chemiluminescence; detection antibody

The chains behind the UniProt entries cited, without tags or fusion partners. Residues count along the entry.
UniProt P06731, residues 35-685: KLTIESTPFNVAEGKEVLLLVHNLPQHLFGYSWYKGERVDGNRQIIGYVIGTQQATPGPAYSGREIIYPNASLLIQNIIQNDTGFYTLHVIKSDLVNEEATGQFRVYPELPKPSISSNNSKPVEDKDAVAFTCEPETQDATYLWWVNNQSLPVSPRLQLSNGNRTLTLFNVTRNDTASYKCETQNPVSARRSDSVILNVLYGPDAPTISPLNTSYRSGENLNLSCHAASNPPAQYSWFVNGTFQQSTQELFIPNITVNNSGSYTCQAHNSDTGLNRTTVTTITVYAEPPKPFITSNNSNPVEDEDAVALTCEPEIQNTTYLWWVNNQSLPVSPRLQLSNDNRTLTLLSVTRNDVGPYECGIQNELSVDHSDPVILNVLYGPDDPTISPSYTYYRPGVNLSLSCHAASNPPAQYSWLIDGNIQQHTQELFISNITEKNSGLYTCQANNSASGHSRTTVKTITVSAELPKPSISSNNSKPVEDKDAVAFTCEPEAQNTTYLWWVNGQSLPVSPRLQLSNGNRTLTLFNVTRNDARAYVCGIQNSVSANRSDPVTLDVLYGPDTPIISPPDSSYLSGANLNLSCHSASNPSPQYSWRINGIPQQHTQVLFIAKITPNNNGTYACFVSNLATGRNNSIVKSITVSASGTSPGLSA

- binding (癌胚抗原 (CEA) [1]): binds
- binding (癌胚抗原 (CEA) [2]): binds
B1: 2D5-HAP (protein, human, not shown: small tags and cut ends; large carriers)
chain: VQLQESGGGLVQAGGSLRLSCVASGRTFSSHPMGWFRQAPGKEREFVAGISWSGGSTHYADSVKGRFTISRDTAKNTVYLQMNSLKPEDTAVYYCNAALSERTPIATMPSQYDYWGQGTQVTVSSHHHHHH
